Measurements published in patent publication US20030028009A1.
No constants are given. Whether binding was seen depends on the method and setting. A result given as binding can be weak or reduced; the word gives no strength.

Molecular target: integrin αvβ3, purified from human placenta (human)
Assay: ELISA, competition with biotinylated fibrinogen on immobilized αvβ3

B1: LM609 grafted antibody variant S102 Fab (Fab, V domains shown)
VH: QVQLVESGGGVVQPGRSLRLSCAASGFTFSSYDMSWVRQAPGKGLEWVAKVSSGGGSTYYLDTVQGRFTISRDNSKNTLYLQMNSLRAEDTAVYYCARHNYGSFASWGQGTTVTVSS
VL: EIVLTQSPATLSLSPGERATLSCQASQSISNHLHWYQQRPGQAPRLLIRYRSQSISGIPARFSGSGSGTDFTLTISSLEPEDFAVYYCQQSGSWPHTFGGGTKVEIK
With B1 as the binder, how does the binding read?
Its binding is “binds”.

B2: LM609 grafted antibody combinatorial variant clone C59 Fab (Fab, V domains shown)
VH: QVQLVESGGGVVQPGRSLRLSCAASGFTFSSYDMSWVRQAPGKGLEWVAKVSSGGGSTYYPDTVQGRFTISRDNSKNTLYLQMNSLRAEDTAVYYCARHNYGSFADWGQGTTVTVSS
VL: EIVLTQSPATLSLSPGERATLSCQASQSISNFLHWYQQRPGQAPRLLIRYRSQSISGIPARFSGSGSGTDFTLTISSLEPEDFAVYYCQQSGSWPHTFGGGTKVEIK
For B2, which binding is on record?
The binding was “binds”.
